According to publication PMC12561191:
Results are given in words; binding and its absence hold for the method and conditions named. In cells and extracts the contact can be indirect. Some entries that bind do so weakly or less than the wild type.

Sequences of proteins named here, by UniProt entry; tags and fusion partners are left off.
UniProt Q07812: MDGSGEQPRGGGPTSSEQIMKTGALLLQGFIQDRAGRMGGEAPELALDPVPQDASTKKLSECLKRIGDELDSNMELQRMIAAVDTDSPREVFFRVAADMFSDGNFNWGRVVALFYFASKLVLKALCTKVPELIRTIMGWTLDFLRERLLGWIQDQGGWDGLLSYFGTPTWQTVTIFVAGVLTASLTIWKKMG
UniProt Q07813: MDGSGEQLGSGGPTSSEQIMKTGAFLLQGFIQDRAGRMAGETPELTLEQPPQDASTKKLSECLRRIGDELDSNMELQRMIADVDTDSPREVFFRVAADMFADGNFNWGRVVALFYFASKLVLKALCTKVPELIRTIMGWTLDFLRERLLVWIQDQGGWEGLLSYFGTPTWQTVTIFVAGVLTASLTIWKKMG
UniProt P12956: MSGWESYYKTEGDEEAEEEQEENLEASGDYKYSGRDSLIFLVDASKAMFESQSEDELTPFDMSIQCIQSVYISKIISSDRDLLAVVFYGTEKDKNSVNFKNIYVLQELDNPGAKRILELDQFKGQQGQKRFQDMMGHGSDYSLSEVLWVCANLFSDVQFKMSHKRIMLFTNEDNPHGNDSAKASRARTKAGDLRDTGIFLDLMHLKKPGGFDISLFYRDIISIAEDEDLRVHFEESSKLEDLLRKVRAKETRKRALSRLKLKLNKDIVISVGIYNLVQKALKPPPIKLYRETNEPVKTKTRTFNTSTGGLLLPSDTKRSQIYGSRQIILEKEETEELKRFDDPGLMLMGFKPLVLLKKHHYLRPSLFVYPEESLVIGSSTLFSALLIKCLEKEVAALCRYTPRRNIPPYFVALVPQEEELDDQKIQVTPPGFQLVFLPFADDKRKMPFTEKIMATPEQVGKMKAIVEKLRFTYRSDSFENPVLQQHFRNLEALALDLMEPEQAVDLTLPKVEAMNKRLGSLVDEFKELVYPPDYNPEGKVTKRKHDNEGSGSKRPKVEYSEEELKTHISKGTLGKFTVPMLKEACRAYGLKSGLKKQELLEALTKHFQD
UniProt P23475: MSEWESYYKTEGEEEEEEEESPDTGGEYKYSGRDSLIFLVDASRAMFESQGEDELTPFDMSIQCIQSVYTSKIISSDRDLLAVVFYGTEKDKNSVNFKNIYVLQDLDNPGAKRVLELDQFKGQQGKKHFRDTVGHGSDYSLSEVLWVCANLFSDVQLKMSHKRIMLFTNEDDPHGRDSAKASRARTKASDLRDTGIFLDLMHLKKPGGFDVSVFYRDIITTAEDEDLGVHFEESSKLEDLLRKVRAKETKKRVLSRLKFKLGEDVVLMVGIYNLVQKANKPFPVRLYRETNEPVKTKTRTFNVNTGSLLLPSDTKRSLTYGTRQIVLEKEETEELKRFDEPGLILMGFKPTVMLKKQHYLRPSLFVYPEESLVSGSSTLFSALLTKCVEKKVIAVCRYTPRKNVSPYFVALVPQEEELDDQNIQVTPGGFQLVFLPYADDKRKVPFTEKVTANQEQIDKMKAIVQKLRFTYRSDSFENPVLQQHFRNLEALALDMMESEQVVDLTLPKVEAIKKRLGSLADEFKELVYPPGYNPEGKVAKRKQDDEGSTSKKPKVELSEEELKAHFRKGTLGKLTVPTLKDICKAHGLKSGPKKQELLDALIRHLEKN

How the values were obtained:
[1] = target: Bcl2‐associated X protein (BAX), endogenous in AC16 cells (human (endogenous in AC16)) (UniProt Q07812); assay: co-IP; endogenous proteins in lysates (IP lysis buffer: 50 mM HEPES pH 7.4, 150 mM NaCl, 0.1% Triton X-100, 2 mM EGTA) of AC16 cells and primary WT cardiocytes, Ang II (0.2 µM) for 48 h; Anti-MANF (Abcam ab67271) or Anti-BAX (Abcam ab182733) overnight at 4 °C, protein A/G plus-agarose; immunoblot
[2] = target: Bcl2‐associated X protein (BAX), endogenous in primary WT mouse cardiocytes (mouse (endogenous in primary cardiocytes)) (UniProt Q07813); assay: as above

Row | binding [1] | binding [2] | Substance
1 | binds |  | Ku70, endogenous in AC16 cells (from UniProt P12956 1-609)
2 |  | binds | Ku70, endogenous in primary WT mouse cardiocytes (from UniProt P23475 1-608)
